The list shows a part of the results. These are raw signals, not scaled to a control.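 First-pass screen: polymyxin B was added at a level that permeabilizes the Salmonella outer membrane while sparing the inner membrane. DMSO wells, with and without polymyxin B, defined maximum growth. Because plates differed from one another, each plate's data were ranked separately and the compounds with the lowest OD600 were carried forward as hits.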
Test system: Salmonella enterica serovar Typhimurium SL1344
Assay: bacterial growth OD600 after 18 h with compound and polymyxin B; higher = more bacterial growth (less inhibition)
Conditions: 50 µM, Mueller-Hinton broth

With `CCOC(=O)C1(CCCc2ccccc2)CCN(C(=O)c2cc(C(C)=O)n[nH]2)CC1` the “bacterial growth OD600” value (polymyxin B 1 µg/mL) was 0.523.

With `CCOC(=O)C1(CC2CCCCO2)CCN(C(=O)c2cc3c(nc2Cl)CCC3)CC1` (stereo not given) the “bacterial growth OD600” value (polymyxin B 1 µg/mL) was 0.947.

In the case of `O=C(c1cn(Cc2ccc(F)cc2Cl)nn1)N1CCOCC1`, the “bacterial growth OD600” value (polymyxin B 1 µg/mL) is reported as 0.952.

With `CCOC(=O)CC1CCCCN1C(=O)CCC1(Cc2cc(OC)ccc2F)CCC(=O)N1` (stereo not given) the “bacterial growth OD600” value (polymyxin B 0.75 µg/mL) was 0.794.

For `CC(NC(=O)C1(N(C)CCc2ccccc2)Cc2ccccc2C1)c1ncn[nH]1` (stereo not given), the “bacterial growth OD600” value (polymyxin B 1 µg/mL) was 1.05.

In the case of `COCC1CCN(C(=O)c2coc(COc3cccc(F)c3F)n2)C1` (stereo not given), the “bacterial growth OD600” value (polymyxin B 1 µg/mL) is reported as 0.802.

With `CCN1CCN(C2(C(=O)NCc3ccccn3)Cc3ccccc3C2)CC1` the “bacterial growth OD600” value (polymyxin B 0.75 µg/mL) was 0.943.

With `CCN(Cc1cnn(C(C)C)c1)CC1CCCN(CCc2cccc(OC)c2)C1` (stereo not given) the “bacterial growth OD600” value (polymyxin B 1 µg/mL) was 0.768.

For `CN(C(=O)c1cccnc1)C(Cc1ccc(F)cc1F)C1CCN(C(=O)/C=C/c2ccccc2)CC1` (stereo not given), the “bacterial growth OD600” value (polymyxin B 0.75 µg/mL) was 0.009.

With `CCOC(=O)N1CCN(C(=O)c2ccc(N3CCC(N4CCCC(O)C4)CC3)cc2)CC1` (stereo not given) the “bacterial growth OD600” value (polymyxin B 0.75 µg/mL) was 0.892.

In the case of `COc1cccc(CC2(CCC(=O)N(C)CCC34CC5CC(CC(C5)C3)C4)CCC(=O)N2)c1` (stereo not given), the “bacterial growth OD600” value (polymyxin B 0.75 µg/mL) is reported as 0.068.

`CC(=O)c1ccc(F)c(-c2cc(C)cc3c2OC(CNC(=O)C2(C)CC2)C3)c1` (stereo not given) was tested, and the “bacterial growth OD600” value (polymyxin B 0.75 µg/mL) was 0.612.

For `O=C(NCCC1=CCCCC1)c1coc(COc2ccccc2)n1`, the “bacterial growth OD600” value (polymyxin B 1 µg/mL) was 0.002.

`COc1ccc(CNC(=O)CCC2CCCN(Cc3nc4ccccc4n3C)C2)c(OC)c1` (stereo not given) was tested, and the “bacterial growth OD600” value (polymyxin B 1 µg/mL) was 0.843.

In the case of `COc1ccc(CCN2CC(NC(=O)CC3=CCCCC3)CC2=O)cc1` (stereo not given), the “bacterial growth OD600” value (polymyxin B 1 µg/mL) is reported as 0.853.

In the case of `O=C(CCOc1ccccc1)Nc1cnn(CC(=O)NC(Cn2cccn2)c2ccccc2)c1` (stereo not given), the “bacterial growth OD600” value (polymyxin B 0.75 µg/mL) is reported as 0.957.

For `O=C(NC1CC(=O)N(CCCc2ccccc2)C1)c1ccsc1` (stereo not given), the “bacterial growth OD600” value (polymyxin B 1 µg/mL) was 1.19.

In the case of `O=C(Nc1cccc(-n2cccn2)c1)C1CCCN1CC1CC1` (stereo not given), the “bacterial growth OD600” value (polymyxin B 1 µg/mL) is reported as 0.996.

With `Cc1cnc(SCCN2CCOCC2)nc1C1CCCN(C(=O)COc2ccccc2Cl)C1` (stereo not given) the “bacterial growth OD600” value (polymyxin B 0.75 µg/mL) was 0.499.

In the case of `O=C(NC(C1CC1)C1CC1)C1CCCN(C2CCN(Cc3ccccc3)CC2)C1` (stereo not given), the “bacterial growth OD600” value (polymyxin B 0.75 µg/mL) is reported as 0.876.

For `COc1ccc(C(CC(=O)N2CCC(C(N)=O)CC2)c2ccccc2)cc1` (stereo not given), the “bacterial growth OD600” value (polymyxin B 1 µg/mL) was 0.809.

For `CC(NC1CCN(c2ccc(NC(=O)c3cnccn3)cc2)CC1)c1cnn(-c2ccccc2)c1` (stereo not given), the “bacterial growth OD600” value (polymyxin B 0.75 µg/mL) was 0.797.

With `COCc1ccc(CN2CC[C@@H](N3CCN(c4ccccn4)CC3)[C@H](O)C2)o1` the “bacterial growth OD600” value (polymyxin B 1 µg/mL) was 1.03.

For `CC(c1ccon1)N(C)C(=O)c1cc(Cn2ccc3ccccc32)[nH]n1` (stereo not given), the “bacterial growth OD600” value (polymyxin B 1 µg/mL) was 0.899.

In the case of `O=C(c1cccnc1)N1CCC(C2CCN(Cc3ccc(Cl)cc3)C2)CC1` (stereo not given), the “bacterial growth OD600” value (polymyxin B 1 µg/mL) is reported as 0.944.

For `CCn1ccnc1CN(C)c1nc2nonc2nc1NCc1cccs1`, the “bacterial growth OD600” value (polymyxin B 1 µg/mL) was 0.907.

For `COCCNC(=O)c1ccc(OC)cc1OC1CCN(C(C)CCSC)CC1` (stereo not given), the “bacterial growth OD600” value (polymyxin B 1 µg/mL) was 1.21.

For `CCOC(=O)N1CCC(N2Cc3cc(C)ccc3OC(c3ccsc3)C2)CC1` (stereo not given), the “bacterial growth OD600” value (polymyxin B 0.75 µg/mL) was 0.065.

`CCN1C(=O)CC(CC(=O)N2CCCC(c3ccccc3)CC2)(c2cccc(C(F)(F)F)c2)C1=O` (stereo not given) was tested, and the “bacterial growth OD600” value (polymyxin B 0.75 µg/mL) was -0.001.

`C=CCC(=O)N1CCCC(CO)(Cc2ccc(F)cc2F)C1` (stereo not given) was tested, and the “bacterial growth OD600” value (polymyxin B 1 µg/mL) was 0.946.

Source: the supplement of paper PMC12889115
